According to patent US20030108998A1:
Results are given in words; binding and its absence hold for the method and conditions named. Some entries that bind do so weakly or less than the wild type.

Amino acid sequences for entries named in this document (tags omitted). Residues count along the entry.
UniProt P20414, residues 24-207: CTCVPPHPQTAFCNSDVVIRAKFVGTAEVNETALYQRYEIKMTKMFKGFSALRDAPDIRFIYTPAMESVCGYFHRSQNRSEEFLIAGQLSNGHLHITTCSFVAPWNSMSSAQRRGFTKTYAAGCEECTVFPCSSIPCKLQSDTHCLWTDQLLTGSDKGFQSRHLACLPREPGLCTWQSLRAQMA

Biological target: bovine tissue inhibitor of metalloproteinases-1 (TIMP-1) (bovine) (UniProt P20414)
Assay: affinity purification: ADMP captured on TIMP-1, with the complex pulled down by anti-TIMP-1 mAb on a protein A column

B1: ADMP-1 (aggrecan degrading metallo protease 1), 67 kDa active form purified from conditioned media of IL-1-stimulated bovine nasal cartilage (enzyme, UniProt Q9TT93 213-839, looked up)
chain: FASLSRFVETLVVADDKMAAFHGAGLKRYLLTVMAAAAKAFKHPSIRNPVSLVVTRLVVLGPGEEGPQVGPSAAQTLRSFCAWQRGLNTPDDADPGHFDTAILFTRQDLCGVSTCDTLGMADVGTVCDPARSCAIVEDDGLQSAFTAAHELGHVFSMLHDNSKQCTGLNGPESTSRHVMAPVMAHVDPEEPWSPCSARFITDFLDNGFGHCLLDKPEAPLHLPVTFPGKDYDADRQCQLTFGPDSRHCPQLPPPCAALWCSGHLNGHAMCQTKHSPWADGTPCGPAQACMGGRCLHVDQLQAFNVPQAGGWGPWGSWGDCSRSCGGGVQFSSRDCTRPVPRNGGKYCEGRRTRFRSCNTQDCPTGSALTFREEQCAAYNHRTDLFKNFPGPMDWVPRYTGVAPRDQCKLTCQTRALGYYYVLDPRVADGTPCSPDSSSVCVQGRCIHAGCDRVIGSKKKFDKCMVCGGDGSSCSKQSGSFKKFRYGYNNVVTIPAGATHILVRQQGSPSVRSLYLALKLPDGSYALNGEYTLIPSPTDVVLPGAVSLRYSGATAASETLSGHGPLAEPLTLQVLVAGNPQNARLRYSFFVPRPRPVPSTPRPTPQDWLRRKSQILEILRRRSWAGRK
binding: binds
